Results: article PMC8997990

The chains behind the UniProt entries cited, without tags or fusion partners. Residues count along the entry.
UniProt Q12778, 158-258: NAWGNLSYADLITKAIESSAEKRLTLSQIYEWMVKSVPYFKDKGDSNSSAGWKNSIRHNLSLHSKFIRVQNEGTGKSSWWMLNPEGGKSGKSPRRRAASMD

How the values were obtained:
Experiment in all cases: EMSA
[1] = molecular target: GST-FOXO1-FK (forkhead domain) (UniProt Q12778); settings: FK domain alone, no nuclear extract; 20 mM Tris pH 7.5, 2 mM NaCl, 2 mM EDTA, 10% glycerol, 2 mM DTT, 0.2 ug poly(dI/dC), 20 min at 4 C; 7% native gel; recombinant protein; residues 158-258; protein details: N-terminal GST; label: 3' biotin
GST-FOXO1 = GST-FOXO1 (UniProt Q12778); settings: FOXO1 alone, no nuclear extract; 20 mM Tris pH 7.5, 2 mM NaCl, 2 mM EDTA, 10% glycerol, 2 mM DTT, 0.2 ug poly(dI/dC), 20 min at 4 C; 7% native gel; recombinant protein; protein details: N-terminal GST; label: 3' biotin
GST = GST alone, no nuclear extract (legend gives lane 4, also listed as a GST + extract lane); 20 mM Tris pH 7.5, 2 mM NaCl, 2 mM EDTA, 10% glycerol, 2 mM DTT, 0.2 ug poly(dI/dC), 20 min at 4 C; 7% native gel; recombinant protein; label: 3' biotin

Measured: binding result

TAGGCCAAGGGCCTTGGGGCTCT (double strand) [mouse Sftpc promoter -186/-163 NKX2.1 site probe]
no binding: all assays above

Construct, isoform or probe ends are uncertain for at least one entry. A negative result means that nothing was seen under these conditions.
